One sequence from paper PMC5996148 can be followed below.

The list shows a part of the results.

Common to all, as to assay: protein microarray (ProtoArray v5.0), streptavidin-Alexa Fluor 647
Settings in all cases: 3'-biotin; 20 mM Tris (pH 7.5), 5 mM MgCl2, 100 mM KCl, 0.1% Tween-20, A/T-rich and random oligonucleotide blockers; temperature not stated; high values mean tight binding

The subject of assay [1] is Leukotriene C4 synthase (human).
Assay [2] relates to Ligand-dependent nuclear receptor corepressor-like protein (human).
For assay [3], the system named is Linker for activation of T-cells family member 1 (human).
Assay [4] relates to Lipoma HMGIC fusion partner (human).
The test system of assay [5] is LisH domain-containing protein ARMC9 (human).
For assay [6], the system named is Long-chain-fatty-acid--CoA ligase ACSBG1 (human).
Assay [7] deals with Low molecular weight phosphotyrosine protein phosphatase (human).
Assay [8] relates to Ly6/PLAUR domain-containing protein 5 (human).
For assay [9], the system named is Lymphocyte antigen 6D (human).
Another assay deals with Lysozyme C (human).

Regarding “GGGAGGCTGAGGCAGG [G4-1 biotinylated (PQS2)]”, the binding signal was -0.318 z-score in assay [1]; -0.314 z-score in assay [2]; -0.362 z-score in [3]; -0.277 z-score in assay [4]; -0.337 z-score in assay [5]; -0.284 z-score in assay [6]. The binding signal was -0.305 z-score in assay [7], -0.336 z-score in [8], -0.266 z-score in [9] and -0.269 z-score in the assay with Lysozyme C (human).
